Assay results from PubChem BioAssay AID720504 (National Center for Advancing Translational Sciences (NCATS), 2013).
The whole screen tested about 360,000 compounds, of which about 10,000 (2.8%) were called active. This list was built around the results that the source calls inconclusive (neither active nor inactive); the mix of calls is not that of the screen. Calls follow the shape of the dose curve; as a rule, active = well fitted inhibition curve with a large enough effect; inconclusive = small, poorly fitted or top-dose-only effect; inactive = flat fitted curve, though single readings scatter. Where the call is inconclusive, the potency comes from a doubtful curve fit.

By UniProt entry, the sequences of proteins in these tests, tags left out.
UniProt P53350, whole entry, looked up: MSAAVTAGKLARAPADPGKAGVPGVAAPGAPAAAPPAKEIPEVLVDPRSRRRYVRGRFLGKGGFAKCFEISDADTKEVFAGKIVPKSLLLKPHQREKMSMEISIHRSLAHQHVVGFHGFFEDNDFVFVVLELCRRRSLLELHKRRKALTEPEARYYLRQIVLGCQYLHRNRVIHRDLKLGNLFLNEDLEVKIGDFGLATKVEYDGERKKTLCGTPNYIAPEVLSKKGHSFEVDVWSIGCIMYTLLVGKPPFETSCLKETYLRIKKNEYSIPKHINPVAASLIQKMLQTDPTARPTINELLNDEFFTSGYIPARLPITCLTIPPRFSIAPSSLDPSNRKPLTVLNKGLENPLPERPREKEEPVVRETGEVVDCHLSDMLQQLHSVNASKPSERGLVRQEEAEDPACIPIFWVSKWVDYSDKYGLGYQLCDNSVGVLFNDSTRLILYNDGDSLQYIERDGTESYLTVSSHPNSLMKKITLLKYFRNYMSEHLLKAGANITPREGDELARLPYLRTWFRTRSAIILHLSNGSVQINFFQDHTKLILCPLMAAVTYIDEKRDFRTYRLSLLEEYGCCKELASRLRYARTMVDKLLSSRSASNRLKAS

biological target: Serine/threonine-protein kinase PLK1 (Homo sapiens) (UniProt P53350); test: qHTS for Inhibitors of PLK1-PDB (polo-like kinase 1 - polo-box domain): Primary Screen; conditions: Plk1 PBD binding of FITC phosphopeptide, fluorescence polarization; also: nearly all actives have a fitted effect of over 65% in size; as to max response, negative = inhibition: series mostly up to about 57 µM
% is scaled to controls: 0 for no effect and ±100 for the full control effect; potency is read from the fitted curve at half-maximal effect.

Row | Compound | Potency | max response, negative = inhibition
1 | CCOC(=O)C1=C(C)OC(N)=C(C#N)C1c1cc2cc(C)ccc2nc1N1CCCCC1 (stereo not drawn) | inconclusive: 26.7 µM [inhibitor, single point] | 
2 | CCc1ccc2c(c1)C(c1ccncc1)=NNC(c1ccccc1)=N2 |  | inactive: -8.38%
3 | CCCc1ccc(C(=O)/C=C/N(C)C)cc1 |  | inconclusive: -27.3% [inhibitor]
4 | CC(=O)Nc1ccc(S[C@@H](CCN2CC[C@H](C(C)(C)C)CCC2=O)c2ccccc2)cc1 | active: 8.44 µM | 
5 | O=C(NCc1cccnc1)C1CC(=O)N(c2ccc(Cl)cc2)C1 (stereo not drawn) | inconclusive: 29.9 µM [inhibitor, single point] | 
6 | N#Cc1ccccc1S(=O)(=O)N1CCN(S(=O)(=O)c2ccc(Br)c(C(=O)O)c2)CC1 | inconclusive: 29.9 µM [inhibitor, single point] | 
7 | Cc1ccc(C)c(-n2nnc3ccccc3c2=O)c1 |  | inactive: -1.68%
8 | O=c1[nH]cc(C(F)(F)F)cc1NS(=O)(=O)c1ccccc1[N+](=O)[O-] | inconclusive: 26.7 µM [inhibitor, single point] | 
9 | CCOC(=O)C1=CC[C@@H](c2ccncc2)N(S(=O)(=O)c2ccc(C)cc2)C1 |  | inactive: -3.59%
10 | O=C(c1cnn(C(=O)COc2ccccc2F)c1)c1cc(F)ccc1O | inconclusive: 15 µM [inhibitor, partial curve] | 
11 | CCn1c(SCC(=O)c2ccc3c(c2)Cc2ccccc2-3)nnc1-c1ccc(N)cc1 |  | inactive: -9.6%
12 | O=C(Oc1cc(Cl)ccc1Cl)c1ccc(N2CCOCC2)c([N+](=O)[O-])c1 |  | inactive: 3.58%
13 | COCC(=O)Nc1ncc(S(=O)(=O)c2ccc([N+](=O)[O-])cc2)s1 | inconclusive: 23.8 µM [inhibitor, partial curve] | 
14 | Cc1ccc(/C=C/C(=O)Nc2cccnc2)o1 | inconclusive: 37.7 µM [inhibitor, single point] | 
15 | COCC(C)n1c(C)cc(C(=O)CSc2ccc(NC(C)=O)cc2)c1C (stereo not drawn) | inconclusive: 21.2 µM [inhibitor, partial curve] | 
16 | S=C1NCN(Cc2ccccc2)CN1C1CCCCC1 |  | inactive: -3.59%
17 | O=C(CCCN1C(=O)/C(=C/c2ccccc2)SC1=S)Nc1ccc(C(=O)O)c(O)c1 | inconclusive: 37.7 µM [inhibitor, single point] | 
18 | CC(=O)Nc1ccc(SCC(=O)NCCc2ccc(F)cc2)cc1 |  | inconclusive: -38% [inhibitor]
19 | Cc1ccc(S(=O)(=O)NC(=O)c2ccc(-c3ccc(C)c4ccccc34)o2)cc1 | active: 26.7 µM | 
20 | COC(=O)c1cn(NC(=O)c2cnccn2)c(=O)c2ccccc12 |  | inactive: 3.73%
21 | C=CCn1c(COc2ccc(CC)cc2)nnc1SC/C(O)=C(\C#N)c1nc2ccccc2[nH]1 | inconclusive: 21.2 µM [inhibitor, partial curve] | 
22 | CC(C)(C)NC(=O)CSc1nnc(C2CC2)n1-c1ccccc1 | inconclusive: 23.8 µM [inhibitor, single point] | 
23 | CSc1ccc(S(=O)(=O)NCc2ccccc2C)cc1 | inconclusive: 21.2 µM [inhibitor, single point] | 

Row | Compound | Potency | max response, negative = inhibition
24 | O=S1(=O)N[C@H](Cc2ccccc2)COc2cc(N3CCN(Cc4ccccc4F)CC3)ccc21 |  | inactive: -5.72%
25 | Cc1cc(C)n2c(Nc3c(C)cccc3C)c(-c3ccccn3)nc2n1 |  | inactive: 0.785%
26 | Cc1sc2nc(SCC(=O)N3CCOCC3)[nH]c(=O)c2c1-c1ccccc1 | inconclusive: 23.8 µM [inhibitor, single point] | 
27 | Cc1nc2cc3c(cc2c(C)c1C(=O)OC(C)C)OCO3 | inconclusive: 29.9 µM [inhibitor, partial curve] | 
28 | CCn1c(SCC(=O)c2ccc(O)c(O)c2)nnc1-c1ccc(C)cc1 |  | inactive: -13.7%
29 | COc1ccccc1-c1ccc2c(c1)C(C)(Cc1ccc(OC(F)(F)F)cc1)C(=O)N2 (stereo not drawn) |  | inactive: -8.94%
30 | CNC(=S)Nc1cc(S(=O)(=O)Nc2cc(Cl)ccc2Cl)ccc1N1CCCC1 | inconclusive: 26.7 µM [inhibitor, single point] | 
31 | Cc1ccc(NC2CCCN(C(=O)c3cn(C)c4ccccc34)C2)cc1C (stereo not drawn) |  | inactive: -5.67%
32 | Cc1cc(NC(=O)c2cc3ccccc3o2)no1 | inconclusive: 23.8 µM [inhibitor, single point] | 
33 | Cc1oc(-c2ccc(F)cc2)cc1-c1nn2c(-c3ccoc3C)nnc2s1 | inconclusive: 23.8 µM [inhibitor, partial curve] | 
34 | CCCCNc1ccc2c3c(cccc13)C(=O)N(CCCC)C2=O | active: 2.12 µM | 
35 | O=C(N/N=C/C=C/c1ccccc1)c1ccncc1 | inconclusive: 26.7 µM [inhibitor, single point] | 
36 | CN(C)Cc1c(C(=O)N/N=C/c2ccc(-c3ccccc3)cc2)nnn1-c1nonc1N | active: 21.2 µM | 
37 | Cc1ccccc1NC(=O)CN1C(=O)S/C(=C\c2cccn2-c2cccc(C(=O)O)c2)C1=O |  | inconclusive: -35.8% [inhibitor]
38 | CC(C)N(C)Cc1cn(C)nc1-c1ccc(Oc2ccccc2)cc1 | inconclusive: 21.2 µM [inhibitor, partial curve] | 
39 | O=C(CCl)N(Cc1cccc([N+](=O)[O-])c1)c1cccc(Cl)c1 | inconclusive: 18.9 µM [inhibitor, partial curve] | 
40 | CC(=O)/C(N=Nc1cc2c(cc1[N+](=O)[O-])OCCO2)=C(\C)O | inconclusive: 33.6 µM [inhibitor, single point] | 
41 | COc1ccc(-c2[nH]c(-c3ccc(F)cc3)nc2SCC(=O)NCc2ccco2)cc1OC |  | inactive: -16.4%
42 | COc1cc(NC(=O)COC(=O)c2ccccc2F)cc(OC)c1 | inconclusive: 8.44 µM [inhibitor, partial curve] | 
43 | CCOc1ccc(C(CC(=O)O)NC(=O)c2sc3ccccc3c2Cl)cc1 (stereo not drawn) | inconclusive: 37.7 µM [inhibitor, partial curve] | 
44 | CCN(CC)S(=O)(=O)c1cccc(-c2n[nH]c(=S)n2/N=C/c2ccc(OC(F)F)cc2)c1 | inconclusive: 26.7 µM [inhibitor, partial curve] | 
45 | Cc1cccc(N2C(=O)C3CCCN3C2=S)c1 (stereo not drawn) | active: 13.4 µM | 
46 | Cc1nc(N)sc1-c1csc(Nc2ccccn2)n1 | inconclusive: 23.8 µM [inhibitor, single point] | 

Row | Compound | Potency | max response, negative = inhibition
47 | CC1=C(SCCC#N)S/C(=C2\SC(C)=C(SCCC#N)S2)S1 | active: 11.9 µM | 
48 | O=c1c2c([nH]n1-c1ccccc1)CCSC2 | inconclusive: 13.4 µM [inhibitor, partial curve] | 
49 | O=C1NN(c2ccccc2)C(=O)/C1=C/c1ccc(-c2cccc(C(=O)O)c2)o1 | inconclusive: 26.7 µM [inhibitor, partial curve] | 
50 | c1ccc2sc(N3CN(CCN4CCOCC4)CN(c4nc5ccccc5s4)C3)nc2c1 | inconclusive: 26.7 µM [inhibitor, single point] | 
51 | CCCCCCCCCCCCCCCC(=O)NCCO | inconclusive: 26.7 µM [inhibitor, single point] | 
52 | Cc1c(CCC(=O)O)c(=O)oc2cc(OCc3ccc(Br)cc3)ccc12 | inconclusive: 29.9 µM [inhibitor, single point] | 
53 | CSCC[C@@H](C(=O)Nc1ccc2c(c1)OCCO2)N1Cc2ccccc2C1=O |  | inactive: -19.3%
54 | CC(=O)C12OC(C)(C)OC1CC1C3CCC4=CC(=O)C=CC4(C)C3(F)C(O)CC12C (stereo not drawn) |  | inactive: -19.9%
55 | CC(C)(C)NC(=S)NNC(=O)c1ccccc1Cl | inconclusive: 23.8 µM [inhibitor, single point] | 
56 | CS(=O)(=O)N1CCC(C(=O)Nc2cc(Cl)cc(Cl)c2)CC1 | inconclusive: 21.2 µM [inhibitor, partial curve] | 
57 | CC1(C)C/C(=N\NC(=S)Nc2ccccc2F)c2cc(O)ccc2O1 | inconclusive: 18.9 µM [inhibitor, partial curve] | 
58 | Cc1c(NC(=O)c2ccc3c4c(cccc24)CC3)c(=O)n(-c2ccccc2)n1C | inconclusive: 37.7 µM [inhibitor, single point] | 
59 | COc1cccc(NC(=S)NCc2ccccn2)c1 | inconclusive: 21.2 µM [inhibitor, single point] | 
60 | Cc1ccc(NC(=O)CCC(=O)Nc2nnc(C3CCCCC3)s2)cc1 | inconclusive: 29.9 µM [inhibitor, partial curve] | 
61 | CCN(C(=O)CSc1nc2cc(C(=O)OC)ccc2c(=O)n1Cc1ccco1)c1cccc(C)c1 |  | inactive: -9.98%
62 | COc1ccc(/C=C/C(=O)c2cc(Br)ccc(=O)c2O)cc1 | inconclusive: 9.47 µM [inhibitor, partial curve] | 
63 | COc1cc(/C=C2/C(=O)NN(c3cccc(Cl)c3)C2=O)cc(Br)c1O | inconclusive: 37.7 µM [inhibitor, partial curve] | 
64 | COc1ccc2ccccc2c1/C=N/Nc1ccc(Cl)c(C(=O)O)c1 | inconclusive: 23.8 µM [inhibitor, single point] | 
65 | Cc1ccc(F)c(CNC(=O)C2CCC(=O)N(Cc3ccccn3)C2)c1F (stereo not drawn) | inconclusive: 21.2 µM [inhibitor, single point] | 
66 | O=C1C=CC(=O)N1c1ccc2c(c1)Cc1cc(F)ccc1-2 | inconclusive: 7.52 µM [inhibitor, partial curve] | 
67 | COc1ccc(/C=C/c2nc(S(=O)(=O)c3ccccc3)c(NCCCN(C)C)o2)cc1OC | inconclusive: 29.9 µM [inhibitor, single point] | 
68 | S=c1[nH]nc(-c2ccco2)n1/N=C/c1ccc(Cl)cc1Cl | inconclusive: 26.7 µM [inhibitor, partial curve] | 

Quoted from the listing.
O=C1NN(c2ccccc2)C(=O)/C1=C/c1ccc(-c2cccc(C(=O)O)c2)o1 | Potency: inconclusive: 26.7 µM [inhibitor, partial curve]
Cc1sc2nc(SCC(=O)N3CCOCC3)[nH]c(=O)c2c1-c1ccccc1 | Potency: inconclusive: 23.8 µM [inhibitor, single point]
Cc1ccc(F)c(CNC(=O)C2CCC(=O)N(Cc3ccccn3)C2)c1F (stereo not drawn) | Potency: inconclusive: 21.2 µM [inhibitor, single point]
